These are yes or no findings as the source states them, for the method shown. Binding seen in cells or lysates may run through a third protein. Some entries that bind do so weakly or less than the wild type.
Columns and labels:
[1] = target: N‐terminal MYC‐tagged CD44s (human) (UniProt P16070); assay: proximity ligation; PLA on MYC and Flag tags; N-MYC-CD44s overexpressing 19TT cells treated for 2 h with control EVs or EVs carrying Flag-TSG6; fixed, permeabilised, Duolink reagents, super-resolution imaging
[2] = target: C‐terminal Flag‐tagged CD44s (human) (UniProt P16070); assay: proximity ligation; PLA between receptors in 19TT cells, treated for 2 h with vehicle, TGF-β, con-EVs or TGF-β-EVs; fixed, permeabilised, Duolink reagents, super-resolution imaging

Amino acid sequences for entries named in this document (tags omitted). A change or cut given only in a name is not applied to a line headed by its entry. Chains listed by the source or under a name are the forms on record and can include a tag or linker. Residues count along the entry.
C‐terminal Flag‐tagged CD44s (P16070, form named): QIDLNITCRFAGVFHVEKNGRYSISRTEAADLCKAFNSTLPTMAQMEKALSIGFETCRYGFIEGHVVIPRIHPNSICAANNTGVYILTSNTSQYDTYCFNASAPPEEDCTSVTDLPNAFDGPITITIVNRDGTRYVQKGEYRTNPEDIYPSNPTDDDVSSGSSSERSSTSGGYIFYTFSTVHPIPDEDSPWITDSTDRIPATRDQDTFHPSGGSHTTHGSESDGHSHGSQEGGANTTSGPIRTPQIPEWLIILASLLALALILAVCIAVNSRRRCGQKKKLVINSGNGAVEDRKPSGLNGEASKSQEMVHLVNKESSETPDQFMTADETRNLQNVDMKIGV
UniProt P98066, residues 18-277: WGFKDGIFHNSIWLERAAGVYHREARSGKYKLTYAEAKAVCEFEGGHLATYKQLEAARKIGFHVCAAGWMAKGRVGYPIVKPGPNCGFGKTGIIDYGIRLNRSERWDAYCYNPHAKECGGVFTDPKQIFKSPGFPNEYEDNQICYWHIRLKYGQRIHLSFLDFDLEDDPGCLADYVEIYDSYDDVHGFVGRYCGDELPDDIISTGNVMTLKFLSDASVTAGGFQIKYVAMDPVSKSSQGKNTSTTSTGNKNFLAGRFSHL

Q: Which binding [1] does the source give for “Flag‐TSG6 on EVs from Flag‐TSG6‐overexpressing CAFs (from UniProt P98066 18-277)” here?
A: Its binding is “binds”.

B1: TGF‐β type I receptor (TGFBR1), endogenous (receptor, UniProt P36897 34-503)
chain: LQCFCHLCTKDNFTCVTDGLCFVSVTETTDKVIHNSMCIAEIDLIPRDRPFVCAPSSKTGSVTTTYCCNQDHCNKIELPTTVKSSPGLGPVELAAVIAGPVCFVCISLMLMVYICHNRTVIHHRVPNEEDPSLDRPFISEGTTLKDLIYDMTTSGSGSGLPLLVQRTIARTIVLQESIGKGRFGEVWRGKWRGEEVAVKIFSSREERSWFREAEIYQTVMLRHENILGFIAADNKDNGTWTQLWLVSDYHEHGSLFDYLNRYTVTVEGMIKLALSTASGLAHLHMEIVGTQGKPAIAHRDLKSKNILVKKNGTCCIADLGLAVRHDSATDTIDIAPNHRVGTKRYMAPEVLDDSINMKHFESFKRADIYAMGLVFWEIARRCSIGGIHEDYQLPYYDLVPSDPSVEEMRKVVCEQKLRPNIPNRWQSCEALRVMAKIMRECWYANGAARLTALRIKKTLSQLSQQEGIKM
Q: B1 was tested. Which binding [2] did it give?
A: The binding was “binds”.
